Experiment [1] concerns the target T1, mammalian Ste20-like kinase 1 (MST1) (human (endogenous in A549)) (UniProt Q13043).
T1 sequence: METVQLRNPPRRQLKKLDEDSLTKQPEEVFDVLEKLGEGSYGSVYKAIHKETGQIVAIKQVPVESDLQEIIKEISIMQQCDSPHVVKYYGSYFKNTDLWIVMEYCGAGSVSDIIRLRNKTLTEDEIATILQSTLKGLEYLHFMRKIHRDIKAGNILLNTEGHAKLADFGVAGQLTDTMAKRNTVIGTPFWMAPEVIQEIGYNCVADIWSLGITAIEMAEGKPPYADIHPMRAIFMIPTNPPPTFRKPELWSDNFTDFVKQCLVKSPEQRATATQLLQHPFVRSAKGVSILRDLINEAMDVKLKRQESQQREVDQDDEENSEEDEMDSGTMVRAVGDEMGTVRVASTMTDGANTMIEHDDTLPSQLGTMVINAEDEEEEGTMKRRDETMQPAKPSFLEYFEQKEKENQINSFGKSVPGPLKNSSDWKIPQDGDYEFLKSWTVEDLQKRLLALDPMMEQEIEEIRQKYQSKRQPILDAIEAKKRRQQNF
Nature of the experiment: co-IP; endogenous proteins in A549 cell lysate; antibody overnight at 4 °C, protein A/G agarose beads, washed with RIPA buffer, western blot. On the technique in general: A western blot detects proteins with antibodies after separation by electrophoresis.

Experiment [2] concerns the target T1, mammalian Ste20-like kinase 1 (MST1) (human (endogenous in A549)). Kind of experiment: co-IP; A549 cells transfected with RASSF7 or RASSF7 mutant plasmids; lysate, antibody overnight at 4 °C, protein A/G agarose beads, washed with RIPA buffer, western blot.

These are yes or no findings as the source states them, for the method shown. In cells and extracts the contact can be indirect. Some results given as binding are weak or reduced against the parent protein; the word gives no strength.

B1: Ras-association domain family 7 (RASSF7), endogenous (protein, UniProt Q02833 1-373)
chain: MLLGLAAMELKVWVDGIQRVVCGVSEQTTCQEVVIALAQAIGQTGRFVLVQRLREKERQLLPQECPVGAQATCGQFASDVQFVLRRTGPSLAGRPSSDSCPPPERCLIRASLPVKPRAALGCEPRKTLTPEPAPSLSRPGPAAPVTPTPGCCTDLRGLELRVQRNAEELGHEAFWEQELRREQAREREGQARLQALSAATAEHAARLQALDAQARALEAELQLAAEAPGPPSPMASATERLHQDLAVQERQSAEVQGSLALVSRALEAAERALQAQAQELEELNRELRQCNLQQFIQQTGAALPPPPRPDRGPPGTQGPLPPAREESLLGAPSESHAGAQPRPRGGPHDAELLEVAAAPAPEWCPLAAQPQAL
On to B1, for which the binding entry in experiment [1] is “binds”.

B2: RASSF7, overexpressed (pCMV6-RASSF7) (protein, UniProt Q02833 1-373)
chain: B1 chain
Consider B2, for which the binding entry in experiment [2] is listed as “binds”.

These data come from publication PMC5667994.
